Data published in the supplement of paper PMC12823440, “Inhibitors supercharge kinase turnover through native proteolytic circuits” (Nature, 2025).
Structures can show the parent of a compound that is named as a salt. This is one part of the list. The calls rarely recur for the same compound in another form.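 In K562 cells expressing nanoluciferase-fused kinases, luminescence was recorded at 4 h intervals between 2 and 18 h, normalized as percent of control with DMSO at 100% and a positive control at 0%. A significant (2 sigma) signal drop marks a time point as decreased. The authors' rule for a hit is not shown and takes in more than the number of time points.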

Amino acid sequences for entries named in this document (tags omitted). A change or cut given only in a name is not applied to a line headed by its entry.
UniProt P28482, whole entry: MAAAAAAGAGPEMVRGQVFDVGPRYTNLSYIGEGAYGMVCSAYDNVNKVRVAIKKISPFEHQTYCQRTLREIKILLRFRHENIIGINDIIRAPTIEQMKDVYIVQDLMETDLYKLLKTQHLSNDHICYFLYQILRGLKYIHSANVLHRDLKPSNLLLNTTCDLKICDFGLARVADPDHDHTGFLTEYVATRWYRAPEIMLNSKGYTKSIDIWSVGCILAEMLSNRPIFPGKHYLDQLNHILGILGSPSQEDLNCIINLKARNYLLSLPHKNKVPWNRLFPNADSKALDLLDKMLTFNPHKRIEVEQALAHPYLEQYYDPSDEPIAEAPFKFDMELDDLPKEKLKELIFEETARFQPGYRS
UniProt P31152, whole entry: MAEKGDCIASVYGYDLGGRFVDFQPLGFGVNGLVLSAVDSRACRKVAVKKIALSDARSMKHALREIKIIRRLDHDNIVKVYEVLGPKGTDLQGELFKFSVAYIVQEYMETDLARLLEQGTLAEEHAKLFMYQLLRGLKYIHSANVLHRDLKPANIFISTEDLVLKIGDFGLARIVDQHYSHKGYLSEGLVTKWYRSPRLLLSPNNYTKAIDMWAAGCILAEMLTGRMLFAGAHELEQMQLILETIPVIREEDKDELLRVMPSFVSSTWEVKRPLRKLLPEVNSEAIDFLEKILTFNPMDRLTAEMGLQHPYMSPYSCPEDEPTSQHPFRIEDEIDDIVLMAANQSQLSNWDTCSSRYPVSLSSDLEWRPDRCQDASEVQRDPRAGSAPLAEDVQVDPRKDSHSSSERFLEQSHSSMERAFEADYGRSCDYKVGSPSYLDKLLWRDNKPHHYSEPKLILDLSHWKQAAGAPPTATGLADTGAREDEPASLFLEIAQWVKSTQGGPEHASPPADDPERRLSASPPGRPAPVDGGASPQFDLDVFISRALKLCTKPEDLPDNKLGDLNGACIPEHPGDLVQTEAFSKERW
UniProt P49137, whole entry, looked up: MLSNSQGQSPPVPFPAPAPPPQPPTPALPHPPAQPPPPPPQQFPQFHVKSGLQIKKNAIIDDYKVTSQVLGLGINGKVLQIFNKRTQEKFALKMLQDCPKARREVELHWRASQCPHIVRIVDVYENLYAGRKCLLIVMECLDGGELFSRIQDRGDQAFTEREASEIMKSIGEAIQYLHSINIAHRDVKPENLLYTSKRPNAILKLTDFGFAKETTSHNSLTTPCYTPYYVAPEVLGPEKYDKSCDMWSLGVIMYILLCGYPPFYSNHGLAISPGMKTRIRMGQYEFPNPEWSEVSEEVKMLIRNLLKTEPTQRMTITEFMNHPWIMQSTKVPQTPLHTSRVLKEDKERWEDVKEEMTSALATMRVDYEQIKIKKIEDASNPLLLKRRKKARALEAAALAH
UniProt Q9BUB5: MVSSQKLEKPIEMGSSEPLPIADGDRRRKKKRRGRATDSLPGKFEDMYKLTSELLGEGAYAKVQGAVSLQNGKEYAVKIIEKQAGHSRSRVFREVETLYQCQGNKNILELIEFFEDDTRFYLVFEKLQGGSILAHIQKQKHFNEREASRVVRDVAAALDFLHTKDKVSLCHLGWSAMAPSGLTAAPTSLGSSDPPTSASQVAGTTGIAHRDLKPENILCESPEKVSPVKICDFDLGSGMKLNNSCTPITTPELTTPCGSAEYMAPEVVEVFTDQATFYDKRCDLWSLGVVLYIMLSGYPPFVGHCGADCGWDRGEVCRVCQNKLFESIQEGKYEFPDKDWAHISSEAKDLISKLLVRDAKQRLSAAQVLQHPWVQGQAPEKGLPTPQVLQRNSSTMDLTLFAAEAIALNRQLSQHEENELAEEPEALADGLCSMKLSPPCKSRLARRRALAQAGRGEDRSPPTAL
UniProt Q16620, whole entry, looked up: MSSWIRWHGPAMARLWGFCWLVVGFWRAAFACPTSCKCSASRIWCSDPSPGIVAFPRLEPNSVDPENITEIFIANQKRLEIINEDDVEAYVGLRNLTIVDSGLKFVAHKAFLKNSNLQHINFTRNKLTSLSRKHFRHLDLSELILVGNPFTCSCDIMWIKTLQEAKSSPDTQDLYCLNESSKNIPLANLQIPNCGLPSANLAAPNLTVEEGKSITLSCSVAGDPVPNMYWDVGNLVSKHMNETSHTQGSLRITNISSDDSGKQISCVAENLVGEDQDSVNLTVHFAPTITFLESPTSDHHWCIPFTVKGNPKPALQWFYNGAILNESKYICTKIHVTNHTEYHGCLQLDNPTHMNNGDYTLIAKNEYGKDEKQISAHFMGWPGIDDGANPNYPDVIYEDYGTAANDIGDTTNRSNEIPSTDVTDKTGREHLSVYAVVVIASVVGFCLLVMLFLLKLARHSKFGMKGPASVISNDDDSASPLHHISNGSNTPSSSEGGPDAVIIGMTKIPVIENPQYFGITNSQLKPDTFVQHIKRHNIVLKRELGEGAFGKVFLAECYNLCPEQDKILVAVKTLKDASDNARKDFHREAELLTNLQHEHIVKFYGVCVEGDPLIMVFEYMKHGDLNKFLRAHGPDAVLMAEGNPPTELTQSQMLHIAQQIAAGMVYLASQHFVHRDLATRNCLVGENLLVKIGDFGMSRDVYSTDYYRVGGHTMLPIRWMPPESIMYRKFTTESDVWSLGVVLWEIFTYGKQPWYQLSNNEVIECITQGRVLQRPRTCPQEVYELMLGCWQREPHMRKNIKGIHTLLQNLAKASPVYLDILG
UniProt Q16288, whole entry, looked up: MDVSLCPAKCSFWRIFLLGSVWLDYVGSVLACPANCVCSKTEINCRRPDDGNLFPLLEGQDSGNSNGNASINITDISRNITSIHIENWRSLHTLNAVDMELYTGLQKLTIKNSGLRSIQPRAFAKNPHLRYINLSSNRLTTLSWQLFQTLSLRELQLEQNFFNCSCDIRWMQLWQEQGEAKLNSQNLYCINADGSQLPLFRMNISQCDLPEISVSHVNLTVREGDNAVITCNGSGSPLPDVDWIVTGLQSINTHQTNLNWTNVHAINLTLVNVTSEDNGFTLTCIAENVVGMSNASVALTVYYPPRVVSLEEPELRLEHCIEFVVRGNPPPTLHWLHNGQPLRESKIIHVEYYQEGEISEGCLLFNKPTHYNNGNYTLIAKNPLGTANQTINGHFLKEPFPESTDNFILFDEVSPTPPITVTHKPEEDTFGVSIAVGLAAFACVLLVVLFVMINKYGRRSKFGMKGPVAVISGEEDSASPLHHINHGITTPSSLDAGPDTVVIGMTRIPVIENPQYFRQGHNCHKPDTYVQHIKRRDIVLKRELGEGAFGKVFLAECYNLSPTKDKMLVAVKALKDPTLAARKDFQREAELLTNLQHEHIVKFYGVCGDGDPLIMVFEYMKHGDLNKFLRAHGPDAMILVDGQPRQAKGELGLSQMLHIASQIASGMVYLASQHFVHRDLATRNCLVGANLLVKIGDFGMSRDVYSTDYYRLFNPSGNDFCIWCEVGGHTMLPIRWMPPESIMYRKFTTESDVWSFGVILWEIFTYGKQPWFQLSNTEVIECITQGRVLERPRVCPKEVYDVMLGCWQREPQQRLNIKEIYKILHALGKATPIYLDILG
UniProt O96013: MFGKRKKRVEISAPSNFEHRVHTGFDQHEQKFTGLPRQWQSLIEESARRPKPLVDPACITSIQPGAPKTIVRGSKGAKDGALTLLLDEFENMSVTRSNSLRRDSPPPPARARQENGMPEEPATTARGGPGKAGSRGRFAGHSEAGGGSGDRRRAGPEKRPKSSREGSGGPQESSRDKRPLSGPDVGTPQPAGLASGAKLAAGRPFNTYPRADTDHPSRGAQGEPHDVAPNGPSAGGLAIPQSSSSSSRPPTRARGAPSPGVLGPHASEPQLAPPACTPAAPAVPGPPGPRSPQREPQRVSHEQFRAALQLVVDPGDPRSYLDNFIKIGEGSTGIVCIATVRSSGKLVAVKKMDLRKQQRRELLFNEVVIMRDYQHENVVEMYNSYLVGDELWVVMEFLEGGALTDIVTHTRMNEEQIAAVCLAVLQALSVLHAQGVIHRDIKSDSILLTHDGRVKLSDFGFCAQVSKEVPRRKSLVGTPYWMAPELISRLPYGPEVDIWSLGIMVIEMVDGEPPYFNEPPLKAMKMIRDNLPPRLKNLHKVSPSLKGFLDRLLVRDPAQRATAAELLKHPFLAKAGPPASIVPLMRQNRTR
UniProt Q96KB5: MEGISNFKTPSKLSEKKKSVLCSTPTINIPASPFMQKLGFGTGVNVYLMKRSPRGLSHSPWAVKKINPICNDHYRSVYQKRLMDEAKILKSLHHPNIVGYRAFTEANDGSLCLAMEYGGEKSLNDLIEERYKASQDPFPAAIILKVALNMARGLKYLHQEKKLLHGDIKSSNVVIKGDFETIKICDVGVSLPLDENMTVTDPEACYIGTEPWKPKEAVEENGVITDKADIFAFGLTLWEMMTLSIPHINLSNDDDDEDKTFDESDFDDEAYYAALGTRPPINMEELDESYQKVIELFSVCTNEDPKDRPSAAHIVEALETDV
UniProt P09619, whole entry: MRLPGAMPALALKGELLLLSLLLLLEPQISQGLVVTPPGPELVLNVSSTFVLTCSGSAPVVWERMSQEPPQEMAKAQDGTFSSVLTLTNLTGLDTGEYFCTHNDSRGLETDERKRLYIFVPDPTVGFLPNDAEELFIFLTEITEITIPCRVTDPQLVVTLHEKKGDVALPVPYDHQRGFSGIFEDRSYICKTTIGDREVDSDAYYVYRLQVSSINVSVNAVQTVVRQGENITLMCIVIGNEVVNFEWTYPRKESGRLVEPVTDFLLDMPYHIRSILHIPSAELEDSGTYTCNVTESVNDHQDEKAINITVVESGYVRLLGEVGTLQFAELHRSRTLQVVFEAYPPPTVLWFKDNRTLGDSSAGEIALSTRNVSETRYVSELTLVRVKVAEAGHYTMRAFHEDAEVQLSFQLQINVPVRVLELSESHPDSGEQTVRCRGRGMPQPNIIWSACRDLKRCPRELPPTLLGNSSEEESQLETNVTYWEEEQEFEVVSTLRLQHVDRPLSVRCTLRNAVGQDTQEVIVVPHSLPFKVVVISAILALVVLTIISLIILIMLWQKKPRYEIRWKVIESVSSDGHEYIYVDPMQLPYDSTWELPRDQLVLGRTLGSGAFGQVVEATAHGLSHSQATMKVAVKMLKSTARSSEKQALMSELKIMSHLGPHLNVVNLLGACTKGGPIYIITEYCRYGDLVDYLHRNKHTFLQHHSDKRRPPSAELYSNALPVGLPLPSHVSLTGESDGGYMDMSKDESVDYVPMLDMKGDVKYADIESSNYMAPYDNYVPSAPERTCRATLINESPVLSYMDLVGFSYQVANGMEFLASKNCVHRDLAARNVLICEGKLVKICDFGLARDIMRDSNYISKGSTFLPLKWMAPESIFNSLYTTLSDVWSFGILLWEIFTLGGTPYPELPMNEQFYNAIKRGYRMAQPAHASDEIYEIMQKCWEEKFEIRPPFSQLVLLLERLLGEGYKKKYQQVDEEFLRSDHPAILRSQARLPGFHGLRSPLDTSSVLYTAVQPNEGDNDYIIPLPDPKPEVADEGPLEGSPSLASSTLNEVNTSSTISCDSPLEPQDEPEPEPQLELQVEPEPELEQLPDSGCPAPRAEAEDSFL
UniProt Q15118, whole entry, looked up: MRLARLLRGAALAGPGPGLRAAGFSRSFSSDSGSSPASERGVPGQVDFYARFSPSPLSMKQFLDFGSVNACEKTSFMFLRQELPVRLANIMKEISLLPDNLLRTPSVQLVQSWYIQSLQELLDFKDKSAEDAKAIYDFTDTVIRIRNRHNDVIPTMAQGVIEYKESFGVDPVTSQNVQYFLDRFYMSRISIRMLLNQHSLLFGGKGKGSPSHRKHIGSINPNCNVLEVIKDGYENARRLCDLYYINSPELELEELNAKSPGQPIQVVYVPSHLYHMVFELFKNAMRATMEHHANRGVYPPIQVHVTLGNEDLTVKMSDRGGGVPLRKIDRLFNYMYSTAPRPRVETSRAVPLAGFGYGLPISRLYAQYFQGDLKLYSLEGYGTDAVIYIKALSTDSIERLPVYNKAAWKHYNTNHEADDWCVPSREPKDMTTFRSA

Tests used:
Experiment in all cases: kinase-Nluc reporter destabilization hit call (1 = scored as downregulated) (binary); higher = compound decreases kinase abundance
Settings in all cases: K562, 2-18 h
MAPK1 = MAPK1 (UniProt P28482)
MAPK4 = MAPK4 (UniProt P31152)
MAPKAPK2 = MAPKAPK2 (UniProt P49137)
MKNK1 = MKNK1 (UniProt Q9BUB5)
NTRK2 = NTRK2 (UniProt Q16620)
NTRK3 = NTRK3 (UniProt Q16288)
PAK4 = PAK4 (UniProt O96013)
PBK = PBK (UniProt Q96KB5)
PDGFRB = PDGFRB (UniProt P09619)
PDK1 = PDK1 (UniProt Q15118)

Measured: kinase-Nluc reporter destabilization hit call

Cc1cc(Nc2ncc(Cl)c(Nc3ccccc3S(=O)(=O)C(C)C)n2)c(OC(C)C)cc1C1CCNCC1 [Ceritinib]
inactive: MAPK1; 2.5 µM 0 | MAPK4; 2.5 µM 0 | MAPKAPK2; 2.5 µM 0 | MKNK1; 2.5 µM 0 | NTRK2; 2.5 µM 0 | NTRK3; 2.5 µM 0 | PAK4; 2.5 µM 0 | PBK; 2.5 µM 0 | PDGFRB; 2.5 µM 0 | PDK1; 2.5 µM 0

CN(C)C(=O)c1cc2cnc(Nc3ccc(N4CCNCC4)cn3)nc2n1C1CCCC1 [Ribociclib]
inactive: MAPK1; 10 µM 0 | MAPK4; 10 µM 0 | MAPKAPK2; 10 µM 0 | MKNK1; 10 µM 0 | NTRK2; 10 µM 0 | NTRK3; 10 µM 0 | PAK4; 10 µM 0 | PBK; 10 µM 0 | PDGFRB; 10 µM 0 | PDK1; 10 µM 0

C#Cc1cccc(Nc2ncnc3cc(OCCOC)c(OCCO)cc23)c1 [Desmethyl Erlotinib (hydrochloride)]
inactive: MAPK1; 10 µM 0 | MAPK4; 10 µM 0 | MAPKAPK2; 10 µM 0 | MKNK1; 10 µM 0 | NTRK2; 10 µM 0 | NTRK3; 10 µM 0 | PAK4; 10 µM 0 | PBK; 10 µM 0 | PDGFRB; 10 µM 0 | PDK1; 10 µM 0

COc1cc2nccc(Oc3ccc(NC(=O)C4(C(=O)Nc5ccc(F)cc5)CC4)cc3)c2cc1OC [Cabozantinib]
inactive: MAPK1; 2.5 µM 0 | MAPK4; 2.5 µM 0 | MAPKAPK2; 2.5 µM 0 | MKNK1; 2.5 µM 0 | NTRK2; 2.5 µM 0 | NTRK3; 2.5 µM 0 | PAK4; 2.5 µM 0 | PBK; 2.5 µM 0 | PDGFRB; 2.5 µM 0 | PDK1; 2.5 µM 0

CN1CCCN(C(=O)c2cccc(-c3ccc(/C=C4/C(=O)Nc5ccc(Cl)cc54)o3)c2)CC1 [CX-6258 (hydrochloride)]
inactive: MAPK1; 2.5 µM 0 | MAPK4; 2.5 µM 0 | MAPKAPK2; 2.5 µM 0 | MKNK1; 2.5 µM 0 | NTRK2; 2.5 µM 0 | NTRK3; 2.5 µM 0 | PAK4; 2.5 µM 0 | PBK; 2.5 µM 0 | PDGFRB; 2.5 µM 0 | PDK1; 2.5 µM 0

COc1cc2c(cc1OC)-c1c(C)c3ccc(OC)c(OC)c3c[n+]1CC2 [Dehydrocorydaline]
inactive: MAPK1; 10 µM 0 | MAPK4; 10 µM 0 | MAPKAPK2; 10 µM 0 | MKNK1; 10 µM 0 | NTRK2; 10 µM 0 | NTRK3; 10 µM 0 | PAK4; 10 µM 0 | PBK; 10 µM 0 | PDGFRB; 10 µM 0 | PDK1; 10 µM 0

Clc1ccc(C2(c3ccc(-c4cn[nH]c4)cc3)CCNCC2)cc1
inactive: MAPK1; 10 µM 0 | MAPK4; 10 µM 0 | MAPKAPK2; 10 µM 0 | MKNK1; 10 µM 0 | NTRK2; 10 µM 0 | NTRK3; 10 µM 0 | PAK4; 10 µM 0 | PBK; 10 µM 0 | PDGFRB; 10 µM 0 | PDK1; 10 µM 0

COc1cc(/C=C/C(=O)O)ccc1O [Ferulic acid (sodium)]
inactive: MAPK1; 10 µM 0 | MAPK4; 10 µM 0 | MAPKAPK2; 10 µM 0 | MKNK1; 10 µM 0 | NTRK2; 10 µM 0 | NTRK3; 10 µM 0 | PAK4; 10 µM 0 | PBK; 10 µM 0 | PDGFRB; 10 µM 0 | PDK1; 10 µM 0

Random excerpt: 2 entries already listed
COc1cc2c(cc1OC)-c1c(C)c3ccc(OC)c(OC)c3c[n+]1CC2 [Dehydrocorydaline]
inactive: MAPK1; 10 µM 0 | MAPK4; 10 µM 0 | MAPKAPK2; 10 µM 0 | MKNK1; 10 µM 0 | NTRK2; 10 µM 0 | NTRK3; 10 µM 0 | PAK4; 10 µM 0 | PBK; 10 µM 0 | PDGFRB; 10 µM 0 | PDK1; 10 µM 0

Cc1cc(Nc2ncc(Cl)c(Nc3ccccc3S(=O)(=O)C(C)C)n2)c(OC(C)C)cc1C1CCNCC1 [Ceritinib]
inactive: MAPK1; 2.5 µM 0 | MAPK4; 2.5 µM 0 | MAPKAPK2; 2.5 µM 0 | MKNK1; 2.5 µM 0 | NTRK2; 2.5 µM 0 | NTRK3; 2.5 µM 0 | PAK4; 2.5 µM 0 | PBK; 2.5 µM 0 | PDGFRB; 2.5 µM 0 | PDK1; 2.5 µM 0

Continued.

CC(C)Oc1ccc(-c2nn([C@@H](C)c3oc4ccc(F)cc4c(=O)c3-c3cccc(F)c3)c3ncnc(N)c23)cc1F [Umbralisib]
inactive: MAPK1; 2.5 µM 0 | MAPK4; 2.5 µM 0 | MAPKAPK2; 2.5 µM 0 | MKNK1; 2.5 µM 0 | NTRK2; 2.5 µM 0 | NTRK3; 2.5 µM 0 | PAK4; 2.5 µM 0 | PBK; 2.5 µM 0 | PDGFRB; 2.5 µM 0 | PDK1; 2.5 µM 0

CNC(=O)c1ccccc1Nc1cc(Nc2ccc(N3CCOCC3)cc2OC)ncc1C(F)(F)F [PND-1186 (hydrochloride)]
inactive: MAPK1; 10 µM 0 | MAPK4; 10 µM 0 | MAPKAPK2; 10 µM 0 | MKNK1; 10 µM 0 | NTRK2; 10 µM 0 | NTRK3; 10 µM 0 | PAK4; 10 µM 0 | PBK; 10 µM 0 | PDGFRB; 10 µM 0 | PDK1; 10 µM 0

CCc1nc(C(N)=O)c(Nc2ccc(N3CCC(N4CCN(C)CC4)CC3)c(OC)c2)nc1NC1CCOCC1 [Gilteritinib]
inactive: MAPK1; 2 µM 0 | MAPK4; 2 µM 0 | MAPKAPK2; 2 µM 0 | MKNK1; 2 µM 0 | NTRK2; 2 µM 0 | NTRK3; 2 µM 0 | PAK4; 2 µM 0 | PBK; 2 µM 0 | PDGFRB; 2 µM 0 | PDK1; 2 µM 0

CNC(=O)c1ccc(Nc2ncc(C(F)(F)F)c(NCc3nccnc3N(C)S(C)(=O)=O)n2)cc1 [Defactinib]
inactive: MAPK1; 10 µM 0 | MAPK4; 10 µM 0 | MAPKAPK2; 10 µM 0 | MKNK1; 10 µM 0 | NTRK2; 10 µM 0 | NTRK3; 10 µM 0 | PAK4; 10 µM 0 | PBK; 10 µM 0 | PDGFRB; 10 µM 0 | PDK1; 10 µM 0

Oc1cccc(-c2nc(N3CCOCC3)c3oc4ncccc4c3n2)c1 [PI-103 (Hydrochloride)]
inactive: MAPK1; 2.5 µM 0 | MAPK4; 2.5 µM 0 | MAPKAPK2; 2.5 µM 0 | MKNK1; 2.5 µM 0 | NTRK2; 2.5 µM 0 | NTRK3; 2.5 µM 0 | PAK4; 2.5 µM 0 | PBK; 2.5 µM 0 | PDGFRB; 2.5 µM 0 | PDK1; 2.5 µM 0

Nc1ncnc2c1c(-c1ccc(Oc3ccccc3)cc1)nn2[C@@H]1CCCNC1
inactive: MAPK1; 2.5 µM 0 | MAPK4; 2.5 µM 0 | MAPKAPK2; 2.5 µM 0 | MKNK1; 2.5 µM 0 | NTRK2; 2.5 µM 0 | NTRK3; 2.5 µM 0 | PAK4; 2.5 µM 0 | PBK; 2.5 µM 0 | PDGFRB; 2.5 µM 0 | PDK1; 2.5 µM 0

COCCOc1cc(F)c2c(Nc3ccc(NC(=O)Cn4cc(C(C)C)nn4)cc3)ncnc2c1
inactive: MAPK1; 10 µM 0 | MAPK4; 10 µM 0 | MAPKAPK2; 10 µM 0 | MKNK1; 10 µM 0 | NTRK2; 10 µM 0 | NTRK3; 10 µM 0 | PAK4; 10 µM 0 | PBK; 10 µM 0 | PDGFRB; 10 µM 0 | PDK1; 10 µM 0
